PubChem BioAssay AID743121 | NCATS – 2013
The deposit covers about 26,000 reagents; shown is an unselected part. Of all reagents, 167 (0.63%) are marked active. 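Calls are per gene from RSA p-values that are not deposited; an individual active-marked siRNA can sensitise only weakly.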 Not all columns of the deposit are shown. No sequences are given here.

- Screen: 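Knock-downs that sensitise breast cancer cells to camptothecin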 (primary screen)
- Cell system: MDA-MB-231 cells, a human breast cancer line
- Reagent: single siRNA against human genes, 20 nM siRNA (0.8 pmol per well)
- Timing: 120 h (drug added 48 h after transfection, read 72 h later)
- Treatment: camptothecin 20 nM (about EC30) for 72 h; vehicle 0.1% DMSO in parallel plates
- Measured: 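CellTiter-Glo ATP signal, scaled to control siRNA as percent viability; sensitisation given as log2 of untreated divided by camptothecin-treated viability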
- Reading the numbers: log2 vehicle/camptothecin viability: higher = stronger sensitisation to camptothecin; viability with camptothecin: higher = more viable cells
- Call rule: 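Each gene scored by redundant siRNA activity (RSA) over its individual siRNA ratios; a gene is called active at p < 0.001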

no.	Gene	PubChem SID	log2 vehicle/camptothecin viability	viability with camptothecin (% of control)	Outcome
1	MPZL1	SID164401165	0.285	73.6	inactive
2	MPZL1	SID164401166	-0.0776	95.6	inactive
3	MPZL1	SID164401168	-0.214	50.4	inactive
4	MPZL1	SID164401170	-0.114	92.7	inactive
5	BPIFB6	SID164568915	0.967	41.1	inactive
6	BPIFB6	SID164568916	-0.869	52.9	inactive
7	BPIFB6	SID164568917	-0.229	74.9	inactive
8	TXK	SID164393038	-0.166	107	inactive
9	TXK	SID164393040	0.0811	91.6	inactive
10	TXK	SID164393041	-0.346	94.6	inactive
11	TXK	SID164393042	-0.609	29.7	inactive
12	ADAM17	SID164390629	-1.34	41.5	inactive
13	ADAM17	SID164390633	-0.253	93.7	inactive
14	ADAM17	SID164390634	0.00528	87.7	inactive
15	CPT1C	SID164567742	-0.263	94.7	inactive
16	CPT1C	SID164567744	-0.449	86	inactive
17	CPT1C	SID164567745	0.203	63.2	inactive
18	CPT1C	SID164567748	0.0291	53.7	inactive
19	FCRL2	SID164531503	-0.501	29.1	inactive
20	FCRL2	SID164531504	-0.347	81.9	inactive
21	FCRL2	SID164531505	-0.113	95.2	inactive
22	FCRL2	SID164531508	-0.0874	86.8	inactive
23	FKBP10	SID164499820	-0.218	115	inactive
24	FKBP10	SID164499822	-0.407	29.9	inactive
25	FKBP10	SID164499823	-0.355	55.6	inactive
26	FKBP10	SID164499824	-0.486	80.4	inactive
27	OXGR1	SID164462923	-0.243	54.4	inactive
28	OXGR1	SID164462924	-0.197	108	inactive
29	OXGR1	SID164462927	-0.221	81.1	inactive
30	OXGR1	SID164462928	1.23	30.7	inactive
31	SCO2	SID164407946	-0.16	29.2	inactive
32	SCO2	SID164407948	-0.00689	103	inactive
33	SCO2	SID164407949	-0.226	84.2	inactive
34	SCO2	SID164407950	-0.382	76	inactive
35	IFNA6	SID164370811	-0.00141	93.7	inactive
36	IFNA6	SID164370813	-0.0168	86.7	inactive
37	IFNA6	SID164370814	-0.296	99.2	inactive
38	IFNA6	SID164370815	0.0512	71.7	inactive
39	THBS2	SID164391721	-0.036	65.1	inactive
40	THBS2	SID164391722	-0.177	101	inactive
41	THBS2	SID164391724	-0.177	60.4	inactive
42	THBS2	SID164391725	-0.341	80.5	inactive
43	SNRNP70	SID164389038	0.641	18.8	inactive
44	SNRNP70	SID164389043	-0.012	45	inactive
45	SNRNP70	SID164389044	-0.462	29.8	inactive
46	SNRNP70	SID164389045	-0.36	77.6	inactive
47	API5	SID164398280	-0.136	107	inactive
48	API5	SID164398281	-0.131	85.6	inactive
49	API5	SID164398283	-0.771	110	inactive
50	API5	SID164398284	0.233	26.2	inactive
51	JOSD1	SID164407497	-0.0189	83.7	inactive
52	JOSD1	SID164407498	0.168	75.5	inactive
53	JOSD1	SID164407500	-0.431	75.2	inactive
54	JOSD1	SID164407501	0.195	59.7	inactive
55	ENC1	SID164398055	0.197	65.2	inactive
56	ENC1	SID164398058	-0.834	71.7	inactive
57	ASPH	SID164354357	-0.133	88.2	inactive
58	ASPH	SID164354361	0.376	86.2	inactive
59	ASPH	SID164354363	0.919	38.3	inactive
60	ASPH	SID164354371	2.32	9.64	inactive
61	ASPH	SID164354373	-0.171	105	inactive
62	ASPH	SID164354374	-0.377	68.3	inactive
63	ASPH	SID164354378	-0.316	113	inactive
64	ASPH	SID164354381	-0.166	30.8	inactive
65	FBXL5	SID164459388	-0.2	36.2	inactive
66	FBXL5	SID164459390	-0.239	55.4	inactive
67	FBXL5	SID164459392	-0.0128	62.4	inactive
68	HSD17B8	SID164395855	0.0911	83.6	inactive
69	HSD17B8	SID164395856	-0.0514	98.2	inactive
70	HSD17B8	SID164395857	-0.277	42.8	inactive
71	HSD17B8	SID164395858	-0.138	65.7	inactive
72	ASPA	SID164354351	0.206	61.1	inactive
73	ASPA	SID164354353	0.00782	43.6	inactive
74	ASPA	SID164354354	-0.267	137	inactive
75	ASPA	SID164354355	-0.264	99.3	inactive
76	UBA52	SID164393118	0.0206	98.2	inactive
77	UBA52	SID164393119	-0.295	2.44	inactive
78	UBA52	SID164393120	0.328	73.6	inactive
79	UBA52	SID164393121	-0.185	10.7	inactive
80	KCNJ2	SID164372436	-0.101	65.1	inactive
81	KCNJ2	SID164372437	0.0582	99.8	inactive
82	KCNJ2	SID164372438	0.0427	82.1	inactive
83	KCNJ2	SID164372439	0.179	94.1	inactive
84	OBSCN	SID164542722	-0.144	85.7	inactive
85	OBSCN	SID164542726	-0.0497	93.4	inactive
86	OBSCN	SID164542730	0.0713	47	inactive
87	OBSCN	SID164542732	0.0106	84.2	inactive

14 entries already listed, ordered by “viability with camptothecin (% of control)”, low to high.
Gene	PubChem SID	log2 vehicle/camptothecin viability	viability with camptothecin (% of control)	Outcome
UBA52	SID164393119	-0.295	2.44	inactive
UBA52	SID164393121	-0.185	10.7	inactive
ASPA	SID164354353	0.00782	43.6	inactive
ASPA	SID164354351	0.206	61.1	inactive
KCNJ2	SID164372436	-0.101	65.1	inactive
UBA52	SID164393120	0.328	73.6	inactive
KCNJ2	SID164372438	0.0427	82.1	inactive
OBSCN	SID164542722	-0.144	85.7	inactive
OBSCN	SID164542726	-0.0497	93.4	inactive
KCNJ2	SID164372439	0.179	94.1	inactive
UBA52	SID164393118	0.0206	98.2	inactive
ASPA	SID164354355	-0.264	99.3	inactive
KCNJ2	SID164372437	0.0582	99.8	inactive
ASPA	SID164354354	-0.267	137	inactive
